In PubChem BioAssay AID330 (DTP/NCI, 2004):
The list does not hold the whole screen: it gathers tests that were run many times, whatever their T/C, doses with no T/C, and many T/C values between a quarter and a half above the control. Further doses and runs are listed elsewhere. T/C: endpoint of the treated group in % of that of the vehicle group. Some doses have a count of surviving animals in place of a T/C: the source holds a T/C of zero for them, seemingly a mark for toxic or unscored doses. Some survivor counts are full or nearly so, which does not show that the dose was tolerated: the source hardly ever lists a survival T/C far under the control, and the zero likely stands for such cases as well. Counts of survivors are from the toxicity check (mostly the fifth day) where no day follows; animals may have died later. Schedules are NCI's codes, read here as Q, the interval in days (D) or hours (H), X, the number of doses. Some doses were run more than once; the results are listed from low to high. Where survival is the endpoint, this PubChem deposit counts one and a half times the control or more as active, and values a quarter to a half above the control carry no call in these data; other NCI protocols may use other cut-offs. Some T/C values carry the count of animals alive at the toxicity check (mostly the fifth day); without a count, all were alive then.

Tested on: P388 leukemia ip, CD2F1 mice, survival T/C
Assay: NCI In Vivo Anticancer Drug Screen. Data for tumor model P388 Leukemia (intraperitoneal) in CD2F1 (CDF1) mice
Details: T/C endpoint: median survival time, higher T/C = longer survival
[1] = dose: 100.0 mg/kg/injection, schedule: Q01DX001 (ip), vehicle: saline with Tween-80
[2] = dose: 200.0 mg/kg/injection, schedule: Q01DX001 (ip), vehicle: saline with Tween-80
[3] = dose: 200.0 mg/kg/injection, schedule: Q01DX009 (ip), vehicle: saline
[4] = dose: 6.25 mg/kg/injection, schedule: Q01DX005 (ip), vehicle: Klucel (hydroxypropylcellulose) (HPC)
[5] = dose: 12.5 mg/kg/injection, schedule: Q01DX005 (ip), vehicle: Klucel (hydroxypropylcellulose) (HPC)
[6] = dose: 25.0 mg/kg/injection, schedule: Q01DX005 (ip), vehicle: Klucel (hydroxypropylcellulose) (HPC)
[7] = dose: 50.0 mg/kg/injection, schedule: Q01DX005 (ip), vehicle: Klucel (hydroxypropylcellulose) (HPC)
[8] = dose: 100.0 mg/kg/injection, schedule: Q01DX005 (ip), vehicle: Klucel (hydroxypropylcellulose) (HPC)
[9] = dose: 200.0 mg/kg/injection, schedule: Q01DX005 (ip), vehicle: Klucel (hydroxypropylcellulose) (HPC)
[10] = dose: 50.0 mg/kg/injection, schedule: Q01DX009 (ip), vehicle: saline with Tween-80
[11] = dose: 100.0 mg/kg/injection, schedule: Q01DX009 (ip), vehicle: saline with Tween-80

CCC(c1ccc(OC)cc1)C(NC(=S)NCc1ccccc1)c1ccc(OC)cc1 (stereo not drawn) was tested, and the survivor count (dose: 400.0 mg/kg/injection, schedule: Q04DX002 (ip), vehicle: saline with Tween-80) was 6 of 6.

For CC(N)C1CCC2C3CC=C4CC(N)CCC4(C)C3CCC12C (stereo not drawn), the survivor count (dose: 40.0 mg/kg/injection, schedule: Q01DX009 (ip), vehicle: saline with Tween-80) was 3 of 6.

With CCCCCCCCCCCCCCCCCCOP(=O)(CC(=O)NCc1cc(C(C)(C)C)c(O)c(C(C)(C)C)c1)OCCCCCCCCCCCCCCCCCC the survivor count (dose: 50.0 mg/kg/injection, schedule: Q04DX003 (ip), vehicle: saline with Tween-80) was 4 of 6.

CN(C)c1ccc(N=C2C=CC(=O)C(Cl)=C2)cc1 was tested, and the survivor count (dose: 100.0 mg/kg/injection, schedule: Q01DX009 (ip), vehicle: suspension in saline) was 6 of 6 and the survivor count (dose: 200.0 mg/kg/injection, schedule: Q01DX009 (ip), vehicle: suspension in saline) was 0 of 6.

NC1=NC2C(Cl)=CC=CC2S1 (stereo not drawn) was tested, and the survivor count (dose: 200.0 mg/kg/injection, schedule: Q01DX009 (ip), vehicle: Klucel (hydroxypropylcellulose) (HPC)) was 1 of 6.

In the case of CN(C)NC(=O)[S-].CN(C)NC(=O)[S-].[Ni], the survivor count [1] was 1 of 6 and the survivor count [2] was 0 of 6.

In the case of Cc1cc2nc(CC(=O)c3cccc([N+](=O)[O-])c3)c(=O)[nH]c2cc1C, the survivor count (dose: 60.0 mg/kg/injection, schedule: Q01DX005 (ip), vehicle: saline with Tween-80) was 6 of 6, the survivor count (dose: 120.0 mg/kg/injection, schedule: Q01DX005 (ip), vehicle: saline with Tween-80) was 6 of 6 and the survivor count (dose: 240.0 mg/kg/injection, schedule: Q01DX005 (ip), vehicle: saline with Tween-80) was 2 of 6.

In the case of CCN=C(CC(=O)C12CC3CC(CC(C3)C1)C2)N(CC)CC, the survivor count (dose: 100.0 mg/kg/injection, schedule: Q01DX009 (ip), vehicle: saline) was 3 of 6 and the survivor count [3] was 0 of 6.

CN(C)CC(CN(C)C)C(=O)/C=C/c1ccc2c(c1)OCO2 was tested, and the survivor count [4] was 3 of 6, the survivor count [5] was 0 of 6 and the survivor count [6] was 0 of 6. For the same compound, the survivor count [7] was 0 of 6, the survivor count [8] was 0 of 6 and the survivor count [9] was 0 of 6.

In the case of O=[N+]([O-])c1ccc2c(c1)[S@@](=O)c1nc([N+](=O)[O-])cnc1N2, the survivor count [9] was 0 of 6.

CCC(=O)Nc1ccc(C(=O)C(C)Br)cc1 (stereo not drawn) was tested, and the survivor count [10] was 4 of 6, the survivor count [11] was 1 of 6 and the survivor count (dose: 200.0 mg/kg/injection, schedule: Q01DX009 (ip), vehicle: saline with Tween-80) was 1 of 6.

For CCOC(=O)Nc1cc2c(c(N)n1)N=C(c1ccccc1)CN2, the T/C (dose: 4.0 mg/kg/injection, schedule: Q04DX003 (ip), vehicle: saline with Tween-80) was 127 % of control, the T/C (dose: 4.5 mg/kg/injection, schedule: Q04DX003 (ip), vehicle: saline with Tween-80) was 132 % of control and the T/C (dose: 8.0 mg/kg/injection, schedule: Q01DX001 (ip), vehicle: saline with Tween-80) was 125 and 125 % of control [9 of 10 alive]. For the same compound, the T/C (dose: 9.0 mg/kg/injection, schedule: Q04DX003 (ip), vehicle: saline with Tween-80) was 127 % of control [4 of 6 alive], the survivor count (dose: 12.0 mg/kg/injection, schedule: Q01DX005 (ip), vehicle: saline with Tween-80) was 0 of 6 and 2 of 6 and the survivor count (dose: 12.0 mg/kg/injection, schedule: Q01DX009 (ip), vehicle: saline with Tween-80) was 1 of 6. The T/C (dose: 18.0 mg/kg/injection, schedule: Q01DX001 (ip), vehicle: saline with Tween-80) was 125 % of control [9 of 10 alive], the survivor count (dose: 18.0 mg/kg/injection, schedule: Q04DX003 (ip), vehicle: saline with Tween-80) was 6 of 6 and the survivor count (dose: 25.0 mg/kg/injection, schedule: Q01DX001 (ip), vehicle: saline with Tween-80) was 3 of 6. The survivor count (dose: 25.0 mg/kg/injection, schedule: Q01DX005 (ip), vehicle: saline with Tween-80) was 0 of 6, the survivor count (dose: 25.0 mg/kg/injection, schedule: Q01DX009 (ip), vehicle: saline with Tween-80) was 0 of 6 and the survivor count (dose: 37.0 mg/kg/injection, schedule: Q04DX003 (ip), vehicle: saline with Tween-80) was 0 of 6. For the same compound, the survivor count (dose: 50.0 mg/kg/injection, schedule: Q01DX001 (ip), vehicle: saline with Tween-80) was 0 of 6, the survivor count (dose: 50.0 mg/kg/injection, schedule: Q01DX005 (ip), vehicle: saline with Tween-80) was 0 of 6 and the survivor count [10] was 0 of 6. For the same compound, the survivor count (dose: 75.0 mg/kg/injection, schedule: Q04DX003 (ip), vehicle: saline with Tween-80) was 0 of 6, the survivor count [1] was 0 of 6 and the survivor count (dose: 100.0 mg/kg/injection, schedule: Q01DX005 (ip), vehicle: saline with Tween-80) was 0 of 6. The survivor count [11] was 0 of 6, the survivor count (dose: 150.0 mg/kg/injection, schedule: Q04DX003 (ip), vehicle: saline with Tween-80) was 0 of 6 and the survivor count [2] was 0 of 6.

For ClCc1cnc[nH]1, the survivor count [3] was 3 of 6.

With O=C(Nc1ccc(NC2=NCCN2)cc1)c1ccc(C(=O)Nc2ccc(NC3=NCCN3)cc2)c([N+](=O)[O-])c1 the T/C (dose: 3.12 mg/kg/injection, schedule: Q01DX005 (ip), vehicle: Klucel (hydroxypropylcellulose) (HPC)) was 130 % of control, the T/C [4] was 148 % of control and the survivor count [5] was 6 of 6. The survivor count [6] was 5 of 6, the survivor count [7] was 0 of 6 and the survivor count [8] was 0 of 6. The survivor count [9] was 0 of 6.

For Cc1cc(F)nc(F)n1, the survivor count (dose: 200.0 mg/kg/injection, schedule: Q01DX005 (ip), vehicle: saline) was 0 of 6.
